Assay results as given in patent US9266830B2, “Pesticidal arylpyrrolidines” (Bayer Intellectual Property GmbH, priority 2007, dated 2016).
Some results were stated once for a whole list of compounds, not compound by compound.

What was measured:
Assay type in all cases: in vivo
Ctenocephalides felis = Ctenocephalides felis test (CTECFE), blood feeding; details: application rate 100 ppm in cattle blood, adult fleas, after 2 days
Amblyomma hebraeum = Amblyomma hebraeum test (AMBYHE), nymph immersion; details: application rate 100 ppm, nymphs, after 42 days
Procedure: (§1) Solvent: dimethyl sulfoxide
To produce a suitable preparation of active compound, 10 mg of active compound are dissolved in 0.5 ml solvent, and the concentrate is diluted with water to the desired concentration. Nymphs of the tick Amblyomma hebraeum are placed in perforated plastic beakers and immersed in aqueous compound solution for one minute. Ticks are transferred to a filter paper in a Petri dish and incubated in a climate chamber for 42 days.
After 42 days mortality in % is determined 100% means that all the ticks have been killed; 0% means that none of the ticks have been killed.

Lucilia cuprina larvae = experiment: Lucilia cuprina test (larvae in minced horse meat); details: application rate 100 ppm, after 2 days
Boophilus microplus = Boophilus microplus (dip); details: application rate 100 ppm, adult engorged females, after 7 days
Procedure: as §1
To produce a suitable preparation of active compound, 10 mg of active compound are dissolved in 0.5 ml solvent, and the concentrate is diluted with water to the desired concentration. Eight to ten adult engorged female Boophilus microplus ticks are placed in perforated plastic beakers and immersed in aqueous compound solution for one minute. Ticks are transferred to a filter paper in a plastic tray. Egg deposition of fertile eggs is monitored after. After 7 days mortality in % is determined 100% means that all the ticks have been killed; 0% means that none of the ticks have been killed.

Musca domestica = Musca domestica test (sugar sponge); details: application rate 100 ppm, adults, after 2 days
Procedure: as §1
To produce a suitable preparation of active compound, 10 mg of active compound are dissolved in 0.5 ml solvent, and the concentrate is diluted with water to the desired concentration. Prior to the assay, a piece or kitchen sponge is soaked with a mixture of sugar and compound solution and placed into a container. 10 adults (Musca domestica) are placed into the container and closed with a perforated lid. After 2 days mortality in % is determined. 100% means that all the flies have been killed; 0% means that none of the flies have been killed.

CC(C)C(=O)NCc1ccc(N2CCC(c3cc(Cl)cc(Cl)c3)(C(F)(F)F)C2)cc1Cl (stereo not shown) [1-3]
activity (mortality in %) (Ctenocephalides felis): 100% | activity (mortality in %) (Amblyomma hebraeum): 100% | activity (mortality in %) (Lucilia cuprina larvae): 100% | activity (mortality in %) (Boophilus microplus): 100%

O=C(NCc1ccc(N2CCC(c3cc(Cl)cc(Cl)c3)(C(F)(F)F)C2)cc1Cl)C1CC1 (stereo not shown) [1-4]
activity (mortality in %) (Ctenocephalides felis): 100% | activity (mortality in %) (Amblyomma hebraeum): 100% | activity (mortality in %) (Lucilia cuprina larvae): 100% | activity (mortality in %) (Boophilus microplus): 100% | activity (mortality in %) (Musca domestica): 100%

O=C(NCc1ccc(N2CCC(c3cc(Cl)cc(Cl)c3)(C(F)(F)F)C2)cc1Cl)C1CCC1 (stereo not shown) [1-8]
activity (mortality in %) (Ctenocephalides felis): 100% | activity (mortality in %) (Amblyomma hebraeum): 100% | activity (mortality in %) (Lucilia cuprina larvae): 100% | activity (mortality in %) (Musca domestica): 80%

O=C(CC1CC1)NCc1ccc(N2CCC(c3cc(Cl)cc(Cl)c3)(C(F)(F)F)C2)cc1Cl (stereo not shown) [1-12]
activity (mortality in %) (Ctenocephalides felis): 80% | activity (mortality in %) (Amblyomma hebraeum): 100% | activity (mortality in %) (Lucilia cuprina larvae): 100% | activity (mortality in %) (Boophilus microplus): 100%

O=C(CC(F)(F)F)NCc1ccc(N2CCC(c3cc(Cl)cc(Cl)c3)(C(F)(F)F)C2)cc1Cl (stereo not shown) [1-19]
activity (mortality in %) (Ctenocephalides felis): 80% | activity (mortality in %) (Amblyomma hebraeum): 100% | activity (mortality in %) (Lucilia cuprina larvae): 100% | activity (mortality in %) (Boophilus microplus): 100%

O=C(NCc1ccc(N2CCC(c3cc(Cl)cc(Cl)c3)(C(F)(F)F)C2)cc1Cl)C1CC1(F)F (stereo not shown) [1-25]
activity (mortality in %) (Ctenocephalides felis): 100% | activity (mortality in %) (Amblyomma hebraeum): 100% | activity (mortality in %) (Lucilia cuprina larvae): 100% | activity (mortality in %) (Boophilus microplus): 100%

CC=CC(=O)NCc1ccc(N2CCC(c3cc(Cl)cc(Cl)c3)(C(F)(F)F)C2)cc1Cl (stereo not shown) [1-30]
activity (mortality in %) (Ctenocephalides felis): 100% | activity (mortality in %) (Amblyomma hebraeum): 100% | activity (mortality in %) (Lucilia cuprina larvae): 100% | activity (mortality in %) (Boophilus microplus): 100%

C=CCC(=O)NCc1ccc(N2CCC(c3cc(Cl)cc(Cl)c3)(C(F)(F)F)C2)cc1Cl (stereo not shown) [1-36]
activity (mortality in %) (Ctenocephalides felis): 100% | activity (mortality in %) (Amblyomma hebraeum): 100% | activity (mortality in %) (Lucilia cuprina larvae): 100% | activity (mortality in %) (Boophilus microplus): 100%

CSCC(=O)NCc1ccc(N2CCC(c3cc(Cl)cc(Cl)c3)(C(F)(F)F)C2)cc1Cl (stereo not shown) [1-42]
activity (mortality in %) (Ctenocephalides felis): 100% | activity (mortality in %) (Amblyomma hebraeum): 100% | activity (mortality in %) (Lucilia cuprina larvae): 100% | activity (mortality in %) (Boophilus microplus): 100% | activity (mortality in %) (Musca domestica): 100%

O=C(NCc1ccc(N2CCC(c3cc(Cl)cc(Cl)c3)(C(F)(F)F)C2)cc1Cl)NC1CC1 (stereo not shown) [1-81]
activity (mortality in %) (Ctenocephalides felis): 100% | activity (mortality in %) (Amblyomma hebraeum): 100% | activity (mortality in %) (Lucilia cuprina larvae): 100% | activity (mortality in %) (Boophilus microplus): 100% | activity (mortality in %) (Musca domestica): 100%

C#CCNC(=O)NCc1ccc(N2CCC(c3cc(Cl)cc(Cl)c3)(C(F)(F)F)C2)cc1Cl (stereo not shown) [1-88]
activity (mortality in %) (Ctenocephalides felis): 100% | activity (mortality in %) (Amblyomma hebraeum): 100% | activity (mortality in %) (Lucilia cuprina larvae): 100% | activity (mortality in %) (Boophilus microplus): 100% | activity (mortality in %) (Musca domestica): 100%

CCC(=O)NCc1ccc(N2CCC(c3cc(Cl)cc(Cl)c3)(C(F)(F)F)C2)cc1C(F)(F)F (stereo not shown) [1-143]
activity (mortality in %) (Ctenocephalides felis): 90% | activity (mortality in %) (Amblyomma hebraeum): 100% | activity (mortality in %) (Lucilia cuprina larvae): 100% | activity (mortality in %) (Boophilus microplus): 100% | activity (mortality in %) (Musca domestica): 100%

O=C(NCc1ccc(N2CCC(c3cc(Cl)cc(Cl)c3)(C(F)(F)F)C2)cc1C(F)(F)F)C1CC1 (stereo not shown) [1-146]
activity (mortality in %) (Ctenocephalides felis): 80% | activity (mortality in %) (Amblyomma hebraeum): 100% | activity (mortality in %) (Lucilia cuprina larvae): 100% | activity (mortality in %) (Boophilus microplus): 100% | activity (mortality in %) (Musca domestica): 100%

O=C(CC(F)(F)F)NCc1ccc(N2CCC(c3cc(Cl)cc(Cl)c3)(C(F)(F)F)C2)cc1C(F)(F)F (stereo not shown) [1-162]
activity (mortality in %) (Ctenocephalides felis): 100% | activity (mortality in %) (Amblyomma hebraeum): 100% | activity (mortality in %) (Lucilia cuprina larvae): 100% | activity (mortality in %) (Musca domestica): 100%

O=C(NCc1ccc(N2CCC(c3cc(Cl)cc(Cl)c3)(C(F)(F)F)C2)cc1C(F)(F)F)C(F)F (stereo not shown) [1-164]
activity (mortality in %) (Ctenocephalides felis): 95% | activity (mortality in %) (Amblyomma hebraeum): 100% | activity (mortality in %) (Lucilia cuprina larvae): 100%

C#CCNC(=O)NCc1ccc(N2CCC(c3cc(Cl)cc(Cl)c3)(C(F)(F)F)C2)cc1C(F)(F)F (stereo not shown) [1-231]
activity (mortality in %) (Ctenocephalides felis): 100% | activity (mortality in %) (Amblyomma hebraeum): 100% | activity (mortality in %) (Lucilia cuprina larvae): 100% | activity (mortality in %) (Boophilus microplus): 100%

CN(Cc1ccc(N2CCC(c3cc(Cl)cc(Cl)c3)(C(F)(F)F)C2)cc1C(F)(F)F)C(=O)NC1CC1 (stereo not shown) [1-260]
activity (mortality in %) (Ctenocephalides felis): 90% | activity (mortality in %) (Amblyomma hebraeum): 100% | activity (mortality in %) (Lucilia cuprina larvae): 100% | activity (mortality in %) (Boophilus microplus): 100%

O=C(NCc1ccc(N2CCC(c3cc(C(F)(F)F)cc(C(F)(F)F)c3)(C(F)(F)F)C2)cc1C(F)(F)F)NC1CC1 (stereo not shown) [1-305]
activity (mortality in %) (Ctenocephalides felis): 100% | activity (mortality in %) (Amblyomma hebraeum): 100% | activity (mortality in %) (Lucilia cuprina larvae): 100% | activity (mortality in %) (Musca domestica): 100%

O=C(CC(F)(F)F)NCc1ccc(N2CCC(c3cc(C(F)(F)F)cc(C(F)(F)F)c3)(C(F)(F)F)C2)nc1C(F)(F)F (stereo not shown) [1-404]
activity (mortality in %) (Ctenocephalides felis): 100% | activity (mortality in %) (Amblyomma hebraeum): 100% | activity (mortality in %) (Lucilia cuprina larvae): 100% | activity (mortality in %) (Musca domestica): 100%

CCSCC(=O)NCc1ccc(N2CCC(c3cc(Cl)cc(Cl)c3)(C(F)(F)F)C2)cc1C(F)(F)F (stereo not shown) [1-499]
activity (mortality in %) (Ctenocephalides felis): 95% | activity (mortality in %) (Amblyomma hebraeum): 100% | activity (mortality in %) (Lucilia cuprina larvae): 100% | activity (mortality in %) (Boophilus microplus): 100%

C=CCSCC(=O)NCc1ccc(N2CCC(c3cc(Cl)c(Cl)c(Cl)c3)(C(F)(F)F)C2)cc1C(F)(F)F (stereo not shown) [1-732]
activity (mortality in %) (Ctenocephalides felis): 90% | activity (mortality in %) (Amblyomma hebraeum): 100% | activity (mortality in %) (Lucilia cuprina larvae): 100% | activity (mortality in %) (Boophilus microplus): 100%

C=CC[S+]([O-])CC(=O)NCc1ccc(N2CCC(c3cc(Cl)c(Cl)c(Cl)c3)(C(F)(F)F)C2)cc1C(F)(F)F (stereo not shown) [1-733]
activity (mortality in %) (Ctenocephalides felis): 100% | activity (mortality in %) (Amblyomma hebraeum): 100% | activity (mortality in %) (Lucilia cuprina larvae): 100%

CCC(=O)NCc1cnc(N2CCC(c3cc(Cl)c(Cl)c(Cl)c3)(C(F)(F)F)C2)nc1C(F)(F)F (stereo not shown) [3-142]
activity (mortality in %) (Ctenocephalides felis): 100% | activity (mortality in %) (Lucilia cuprina larvae): 100% | activity (mortality in %) (Boophilus microplus): 100% | activity (mortality in %) (Musca domestica): 100%

O=C(NCc1cnc(N2CCC(c3cc(Cl)c(Cl)c(Cl)c3)(C(F)(F)F)C2)nc1C(F)(F)F)C1CC1 (stereo not shown) [3-143]
activity (mortality in %) (Ctenocephalides felis): 100% | activity (mortality in %) (Lucilia cuprina larvae): 100% | activity (mortality in %) (Boophilus microplus): 100% | activity (mortality in %) (Musca domestica): 100%

O=C(CC(F)(F)F)NCc1cnc(N2CCC(c3cc(Cl)c(Cl)c(Cl)c3)(C(F)(F)F)C2)nc1C(F)(F)F (stereo not shown) [3-144]
activity (mortality in %) (Ctenocephalides felis): 100% | activity (mortality in %) (Lucilia cuprina larvae): 100% | activity (mortality in %) (Boophilus microplus): 100% | activity (mortality in %) (Musca domestica): 100%

O=C(NCc1cnc(N2CCC(c3cc(C(F)(F)F)cc(C(F)(F)F)c3)(C(F)(F)F)C2)nc1C(F)(F)F)C1CC1 (stereo not shown) [3-149]
activity (mortality in %) (Ctenocephalides felis): 95% | activity (mortality in %) (Lucilia cuprina larvae): 100% | activity (mortality in %) (Boophilus microplus): 100% | activity (mortality in %) (Musca domestica): 100%

O=C(NCc1sc(N2CCC(c3cc(Cl)c(Cl)c(Cl)c3)(C(F)(F)F)C2)nc1C(F)(F)F)C1CC1 (stereo not shown) [5-143]
activity (mortality in %) (Ctenocephalides felis): 95% | activity (mortality in %) (Lucilia cuprina larvae): 100% | activity (mortality in %) (Boophilus microplus): 100% | activity (mortality in %) (Musca domestica): 100%

O=C(CC(F)(F)F)NCc1sc(N2CCC(c3cc(Cl)c(Cl)c(Cl)c3)(C(F)(F)F)C2)nc1C(F)(F)F (stereo not shown) [5-144]
activity (mortality in %) (Ctenocephalides felis): 100% | activity (mortality in %) (Amblyomma hebraeum): 100% | activity (mortality in %) (Musca domestica): 100%
